The values that follow come from paper PMC9499959.

The chains behind the UniProt entries cited, without tags or fusion partners. Where a name states a change or a piece, a line headed by the entry shows the natural chain unless it says otherwise.
UniProt P79065: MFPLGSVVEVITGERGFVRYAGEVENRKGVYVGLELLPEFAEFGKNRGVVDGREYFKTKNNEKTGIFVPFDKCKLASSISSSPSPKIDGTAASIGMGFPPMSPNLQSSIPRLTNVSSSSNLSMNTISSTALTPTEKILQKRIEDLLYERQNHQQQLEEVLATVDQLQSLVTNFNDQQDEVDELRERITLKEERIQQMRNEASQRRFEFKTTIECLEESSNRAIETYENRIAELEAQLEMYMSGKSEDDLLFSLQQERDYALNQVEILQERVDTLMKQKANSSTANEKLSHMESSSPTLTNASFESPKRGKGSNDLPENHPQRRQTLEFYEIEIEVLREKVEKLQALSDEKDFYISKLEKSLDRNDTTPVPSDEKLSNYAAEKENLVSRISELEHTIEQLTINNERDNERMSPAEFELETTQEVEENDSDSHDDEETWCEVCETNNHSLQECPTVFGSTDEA

The experiment addresses T1, Dma1(1–173aa)-GFP (S. pombe) (UniProt Q10322).
T1 sequence: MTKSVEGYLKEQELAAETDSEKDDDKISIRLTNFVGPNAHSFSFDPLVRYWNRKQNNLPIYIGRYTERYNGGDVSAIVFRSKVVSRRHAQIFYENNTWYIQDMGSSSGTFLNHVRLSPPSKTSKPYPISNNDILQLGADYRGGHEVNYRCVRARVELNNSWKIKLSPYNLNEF
In words: co-IP; lysates of S. pombe cells expressing GFP-tagged Dma1 (whole or 1-173aa) and 6HA-tagged Tip1 (whole or truncated); NP-40 buffer; GFP fusion immunoprecipitated with anti-GFP, anti-HA blot.

No constants are given. Whether binding was seen depends on the method and setting. In cells and extracts the contact can be indirect. A result given as binding can be weak or reduced; the word gives no strength. Tags and fused reporters may be left off the sequences shown.

Turning to “C-terminus fragment of Tip1 covering 245-461aa, tagged with 6HA (from UniProt P79065) (domain or fragment)”, the binding entry is listed as “binds”.
